Here are results for 32 compounds from the supplement of paper PMC4256282, “Profound Activity of the Anti-cancer Drug Bortezomib against Echinococcus multilocularis Metacestodes Identifies the Proteasome as a Novel Drug Target for Cestodes” (PLoS Neglected Tropical Diseases, 2014).

Structures can show the parent of a compound that is named as a salt. The list shows a part of the results. Most values come without repeats; read them as rough.

This assay deals with Echinococcus multilocularis metacestodes. Description: vesicle damage (PGI release) relative to positive control DB1127 at 20 µM, DMSO subtracted; higher = more parasite damage. Conditions: treatment time 5 days.
On to `Cc1nc2n(c(=O)c1CCN1CCC(c3noc4cc(F)ccc34)CC1)CCCC2` [Risperidone], for which the vesicle damage is -4.58%. For the compound `Clc1ccccc1C(c1ccccc1)(c1ccccc1)n1ccnc1` [Clotrimazole], the vesicle damage was 0.909%.

As for `CN1CCCC(n2nc(Cc3ccc(Cl)cc3)c3ccccc3c2=O)CC1` (configuration not stated) [Azelastine hydrochloride], the vesicle damage stood at 4.71%. With `CCc1cc(C(N)=S)ccn1` [Ethionamide], the vesicle damage is -8.97%.

For the compound `CN(C)/N=N/c1[nH]cnc1C(N)=O` [Dacarbazine], the vesicle damage came out at 0.485%. Regarding `COc1c(C)c2c(c(O)c1C/C=C(\C)CCC(=O)O)C(=O)OC2` [Mycophenolic acid], the vesicle damage was 1.82%.

Consider `CO[C@H]1C[C@@H]2CC[C@@H](C)[C@@](O)(O2)C(=O)C(=O)N2CCCC[C@H]2C(=O)O[C@H]([C@H](C)C[C@@H]2CC[C@@H](OC(=O)C(C)(CO)CO)[C@H](OC)C2)CC(=O)[C@H](C)/C=C(\C)[C@@H](O)[C@@H](OC)C(=O)[C@H](C)C[C@H](C)/C=C/C=C/C=C/1C` [Temsirolimus], for which the vesicle damage was -2.21%. As for `Clc1ccc(COC(Cn2ccnc2)c2ccc(Cl)cc2Cl)c(Cl)c1` (configuration not stated) [Miconazole nitrate], the vesicle damage worked out at 0.662%. As for `CC(=O)OCC(=O)[C@@]1(O)CC[C@H]2[C@@H]3CCC4=CC(=O)CC[C@]4(C)[C@H]3C(=O)C[C@@]21C` [Cortisone acetate], the figure is 3.49%; as for `N=C(N)NC(=N)N1CCOCC1` [Moroxydine hydrochloride], -0.115%; as for `NS(=O)(=O)c1cc(C(=O)O)c(NCc2ccco2)cc1Cl` [Furosemide], 0.363%. As for `CC[C@@H]([C@H](C)O)n1ncn(-c2ccc(N3CCN(c4ccc(OC[C@@H]5CO[C@@](Cn6cncn6)(c6ccc(F)cc6F)C5)cc4)CC3)cc2)c1=O` [Posaconazole], the figure is -0.58%; as for `CC1(C)S[C@@H]2[C@H](NC(=O)[C@H](N)c3ccc(O)cc3)C(=O)N2[C@H]1C(=O)O` [Amoxicillin], 2.73%; as for `NCCCC(O)(P(=O)(O)O)P(=O)(O)O` [Alendronate sodium], 0.651%. As for `Nc1nc2ccc(OC(F)(F)F)cc2s1` [Riluzole], the figure is -1.85%; as for `CCCCC(=O)N(Cc1ccc(-c2ccccc2-c2nnn[nH]2)cc1)[C@H](C(=O)O)C(C)C` [Valsartan], -10.8%.

As for `S=c1[nH]cnc2nc[nH]c12` [Mercaptopurine], the vesicle damage is 0.998%. The result for `C[C@@H](CN1CC(=O)NC(=O)C1)N1CC(=O)NC(=O)C1` [Dexrazoxane Hydrochloride] reads -0.627%; that for `Oc1ncnc2[nH]ncc12` [Allopurinol], -1.59%. For the compound `C[C@]12CCC(=O)C=C1[C@@H]1C[C@@H]1[C@H]1[C@@H]3[C@@H]4C[C@@H]4[C@@]4(CCC(=O)O4)[C@@]3(C)CC[C@@H]12` [Drospirenone], the vesicle damage was determined as 16.8%.

For `NC(=O)c1ncn([C@@H]2O[C@H](CO)[C@@H](O)[C@H]2O)c1N` [Acadesine], the vesicle damage was -14%. With `COC[C@@H](c1ccc(C(F)(F)F)cc1)N1CCN(C2(C)CCN(C(=O)c3c(C)ncnc3C)CC2)C[C@@H]1C` [Vicriviroc Malate], the vesicle damage was -0.346%.

Regarding `COc1ccc2cccc(CCNC(C)=O)c2c1` [Agomelatine], the vesicle damage worked out at 0.123%.

With `Nc1ccc(S(=O)(=O)Nc2ncccn2)cc1` [Sulfadiazine], the vesicle damage is -12.2%. As for `CCOC(=O)[C@H](CCc1ccccc1)N[C@H]1CCc2ccccc2N(CC(=O)O)C1=O` [Benazepril hydrochloride], the figure is 1.03%; as for `Cc1cn(-c2cc(NC(=O)c3ccc(C)c(Nc4nccc(-c5cccnc5)n4)c3)cc(C(F)(F)F)c2)cn1` [Nilotinib], 0.205%. For `CC(=O)OCC(=O)[C@@]12N=C(C)O[C@@H]1C[C@H]1[C@@H]3CCC4=CC(=O)C=C[C@]4(C)[C@H]3[C@@H](O)C[C@@]12C` [Deflazacort], the vesicle damage was -13.4%. As to `COc1ccccc1OCC(O)COC(N)=O` (configuration not stated) [Methocarbamol], the vesicle damage was -8.21%.

Turning to `CN(C)[C@@H](CCOc1cccc2ccccc12)c1ccccc1` [Dapoxetine hydrochloride], the vesicle damage is -11.2%. Consider `CC(=O)Oc1cc2c(s1)CCN(C(C(=O)C1CC1)c1ccccc1F)C2` (configuration not stated) [Prasugrel], for which the vesicle damage is 0.513%. For the compound `CCC[C@H](N[C@@H](C)C(=O)N1[C@H](C(=O)O)C[C@@H]2CCCC[C@@H]21)C(=O)OCC` [Perindopril Erbumine], the vesicle damage was -2.32%. The result for `CN1CC(=O)N2[C@H](c3ccc4c(c3)OCO4)c3[nH]c4ccccc4c3C[C@@H]2C1=O` [Tadalafil] reads 2.67%.
